Laboratory results as given in PubChem BioAssay AID2685 (National Center for Advancing Translational Sciences (NCATS), 2010).
This is one part of the list. Further columns of the screen follow, without active or inactive calls. The list favours compounds with an active or inconclusive main result. Potencies come from curve fits of mixed quality, noted in brackets.

Experiment: qHTS Assay for Lipid Storage Modulators in Drosophila S3 Cells;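 for cell number change: cells counted by Cell Tracker Red CMTPX staining in the red channel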
Details: BODIPY lipid droplet fluorescence, 18-24 h; for cell number change: measured here: cell count max response, cells fed with added oleic acid
Outline: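 Drosophila S3 cells got compounds at several concentrations plus oleic acid (400 uM solution). Laser-scanning cytometry with 488 nm excitation read lipid droplets at 500-530 nm and cells at 575-640 nm. Percent activity was relative to 20 uM Triacsin C.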

[1] = measured here: cell number channel AC50, cells fed with added oleic acid
[2] = measured here: lipid fluorescence (Fed channel) AC50, cells fed with added oleic acid

| Structure (SMILES) | AC50 [1] | AC50 [2] | cell number change [%] |
| --- | --- | --- | --- |
| COC(=O)c1sccc1NC(=O)Cn1nnc(-c2ccccc2C)n1 | 6.51 µM [rising, single point] | 6.51 µM [rising, single point] | – |
| COc1ccc(OC)c(/C=C/c2[nH]c(=O)[nH]c(=O)c2[N+](=O)[O-])c1 | – | 23.1 µM [falling, single point] | -19.6 |
| COCCCn1c(C(=O)NCCN2CCOCC2)cc2c(=O)n3cccc(C)c3nc21 | 0.164 µM [rising, full curve, poor fit] | – | 13.8 |
| CCCCC[C@H](O)/C=C/[C@@H]1[C@@H](C/C=C\CCCC(=O)O)[C@@H](O)C[C@H]1O | – | 32.6 µM [falling, single point] | 20.5 |
| CCn1nnnc1SCC(=O)N(C1CCCCC1)C1CCCCC1 | – | 0.00461 µM [rising, full curve, poor fit] | 12.4 |
| CC(C)OCCCNC(=O)c1cccc(NC(=O)c2ccccc2)c1 | – | 0.92 µM [rising, full curve] | 16.8 |
| COc1ccc(CCNC(=O)/C(C#N)=C/c2cccc(OCc3ccccc3)c2)cc1OC | – | 29.1 µM [falling, single point] | -25 |
| CCCCn1c(SCC(=O)N2CCOCC2)nc2ccccc2c1=O | – | 11.6 µM [falling, single point] | 18.9 |
| COc1ccc(CCN2CC(C(=O)O)CC2=O)cc1OC (stereo unspecified) | – | 0.058 µM [falling, full curve, poor fit] | -7.64 |
| CN(C)C1=NC[C@H](Cc2ccccc2)N1CC1CCCC1 | – | 0.58 µM [rising, single point] | 24.8 |
| NC(=O)C1CCN(C(=O)CC(c2ccccc2)c2ccccc2)CC1 | – | 6.51 µM [rising, single point] | 2.65 |
| CSc1ccc(CN2CCCCCC2)cc1 | – | 0.651 µM [rising, full curve, poor fit] | 8.03 |
| CCOC(=O)[C@H]1[C@H]2COc3ccc(Cl)cc3[C@@H]2N2C(=O)CN(Cc3ccc(Cl)cc3)C(=O)[C@@]12C | – | – | 6.08 |
| CCOC(=O)c1[nH]c2ccccc2c1NC(C)=O | – | 29.1 µM [rising, single point] | -4.25 |
| Cc1[nH]c2ccc(-c3n[nH]c(=S)n3Cc3ccccc3)cc2c1C | 0.411 µM [rising, full curve, poor fit] | 0.082 µM [rising, full curve, poor fit] | 5.92 |
| Cc1ccc(S(=O)(=O)n2nc(OC(=O)c3ccccc3F)cc2N)cc1 | – | – | 14.4 |
| O=C(NC1CCCCC1)C1CCN(S(=O)(=O)c2cccc3nonc23)CC1 | 23.1 µM [rising, partial curve] | 29.1 µM [rising, single point] | 148 |
| CCCN(CC(=O)Nc1ccccc1C)C(=O)CCN1C(=O)c2cccc([N+](=O)[O-])c2C1=O | 16.4 µM [rising, partial curve, poor fit] | – | 40.7 |
| O=C(c1ccccc1)N1CCN(C(=O)N2CCCCC2)CC1 | – | – | -2.53 |
| COc1cc(C(=O)NNC(=S)NC(=O)c2ccc(Cl)cc2)cc(OC)c1OC | – | – | -3.65 |

| Structure (SMILES) | AC50 [1] | AC50 [2] | cell number change [%] |
| --- | --- | --- | --- |
| O=C(CCN1C(=O)/C(=C/c2ccccc2F)SC1=S)N[C@@H](CO)Cc1ccccc1 | 23.1 µM [falling, single point] | – | -59.7 |
| O=C(Oc1cccnc1)c1cc(S(=O)(=O)N2CCOCC2)ccc1Cl | 13 µM [falling, partial curve, poor fit] | 4.11 µM [falling, partial curve] | -50.4 |
| CC1=C(C(=O)c2ccccc2)C(c2cn(-c3ccccc3)nc2-c2ccc(Cl)cc2)NC(=S)N1 (stereo unspecified) | 23.1 µM [falling, partial curve] | 2.06 µM [falling, partial curve, poor fit] | -74.9 |
| COC(=O)C1=CO[C@@H](O)C2C(CO)=CCC12 (stereo partly specified) | – | 29.1 µM [rising, single point] | -2.77 |
| COc1ccc2nc(C)cc(NCc3cccc(C(F)(F)F)c3)c2c1 | 6.51 µM [falling, partial curve, poor fit] | – | -30.2 |
| COc1ccc(-c2n[nH]c3c2CN(C(=O)c2ccc(OC)c(OC)c2)CC3)cc1 | – | 6.51 µM [rising, single point] | -25.1 |
| O=C(COc1ccc(Cl)cc1)N1CCN(C(=O)c2ccccc2F)CC1 | – | – | -6.41 |
| COc1ccc(C(=O)NNC(=O)C(NC(=O)c2ccccc2NC(=O)c2ccco2)C(C)C)cc1 (stereo unspecified) | 29.1 µM [falling, single point] | 1.3 µM [rising, full curve] | -100 |
| O=C(/C=C/c1cccc(Cl)c1)NCCN1CCOCC1 | 0.461 µM [rising, full curve, poor fit] | 0.517 µM [rising, single point] | 13.9 |
| COc1ccc(C(CNc2ccc(S(=O)(=O)N3CCCC3)cc2[N+](=O)[O-])N2CCCC2)cc1 (stereo unspecified) | 0.731 µM [falling, single point] | – | -16.7 |
| CC1CC(C)CN(C(=O)Cn2nnc(-c3ccccc3)n2)C1 (stereo unspecified) | – | – | 27.5 |
| Cc1cccc(N=N/C(=C\O)C(=O)c2ccc(Br)cc2)c1 | 2.06 µM [rising, partial curve] | 1.64 µM [rising, partial curve] | -64.5 |
| O=C(CCC(=O)N(CC(=O)NC1CCCC1)Cc1ccccc1)Nc1nccs1 | – | 5.17 µM [falling, full curve, poor fit] | – |
| Cc1cccc(-c2n[nH]c(=S)n2/N=C/c2ccc(C)o2)c1 | 8.2 µM [falling, partial curve, poor fit] | – | -35.3 |
| CCOc1ccc(NS(=O)(=O)c2ccc(C(=O)N3CCCCC3)cc2)cc1 | – | 35.5 µM [falling, single point] | 41.9 |
| O=[N+]([O-])c1cccc2nc(-c3ccccc3)c(-c3ccccc3)nc12 | – | 0.231 µM [falling, full curve] | -26.8 |
| CC12C=CC3(O1)C(C(=O)N(c1cccnc1)C3C(=O)NC1CCCCC1)C2C(=O)Nc1ccccc1 (stereo unspecified) | – | 0.058 µM [rising, full curve, poor fit] | -3.1 |
| CCOc1cccc(OCCCCN2CCOCC2)c1 | – | 10.3 µM [rising, partial curve, poor fit] | 3.01 |
| O=C(CCc1ccc(S(=O)(=O)N2CCOCC2)cc1)Nc1ccc2ccccc2c1 | 0.0058 µM [rising, full curve, poor fit] | – | 18.1 |
| CC1(c2ccncc2)Nc2ccccc2-c2nc3ccccc3n21 (stereo unspecified) | 0.259 µM [rising, full curve, poor fit] | 0.259 µM [rising, partial curve, poor fit] | 182 |

| Structure (SMILES) | AC50 [1] | AC50 [2] | cell number change [%] |
| --- | --- | --- | --- |
| Cc1nn(CC(=O)Nc2c(C)n(C)n(-c3ccccc3)c2=O)c(C)c1[N+](=O)[O-] | – | 0.58 µM [rising, single point] | 11.1 |
| O=C(Cc1ccc(Br)cc1)N1CCCCCC1 | 3.26 µM [falling, single point] | 23.1 µM [falling, single point] | -25.1 |
| O=C(/C=C/c1cn(-c2ccccc2)nc1-c1cccnc1)N1CCCCC1 | – | 29.1 µM [falling, single point] | -41.1 |
| CC(/C=C/c1ccccc1)=N/NC(=O)c1cc([N+](=O)[O-])cc([N+](=O)[O-])c1 | – | – | -8.84 |
| COc1ccccc1NS(=O)(=O)c1ccc(OC)c(OC)c1 | 29.1 µM [rising, single point] | 29.1 µM [rising, single point] | 58.5 |
| COc1ccc(CCNC(=O)c2cnc3scc(C)n3c2=O)cc1OC | – | 8.2 µM [falling, partial curve, poor fit] | -23.1 |
| N#C/C(=C\c1c(N2CCCCC2)nc2ccccn2c1=O)C(=O)NC1CCS(=O)(=O)C1 (stereo unspecified) | – | 23.1 µM [rising, partial curve] | 11.7 |
| COC(=O)c1ccsc1NC(=O)CCS(=O)(=O)c1ccccc1 | – | 0.058 µM [falling, full curve, poor fit] | -5.89 |
| Cc1cc(C)c2nc3sc(C(=O)N4CCOCC4)c(N)c3cc2c1 | – | – | 0.292 |
| COc1cc(CNCCO)ccc1OCC(=O)Nc1ccc(Br)cc1 | – | 29.1 µM [rising, single point] | – |
| CCOc1ccc(NC(=O)CSCC(=O)O)cc1 | – | 1.3 µM [falling, full curve, poor fit] | -28.8 |
| Cc1cccc(N2CCN(C(=O)Cc3ccccc3[N+](=O)[O-])CC2)c1C | – | 29.1 µM [falling, single point] | -13.7 |
| Cc1cccc(/C=N/NC(=O)c2ccncc2)n1 | – | 0.0517 µM [falling, full curve, poor fit] | 19.4 |
| CC(C)NCc1c(O)c(Br)cc2oc3c(c12)CCCC3 | 6.51 µM [falling, single point] | 5.8 µM [falling, single point] | -2.67 |
| CCc1ccc(/C=C2/SC(=S)N(CCC(=O)NCCCN3CCOCC3)C2=O)cc1 | – | – | -1.08 |
| COc1ccccc1NC(=O)Nc1nnc(CC(=O)Nc2ccccc2C)s1 | – | – | 21.5 |
| CC(OC(=O)/C=C/c1cccc(Cl)c1)C(=O)NC1CCCCC1C (stereo unspecified) | 8.2 µM [falling, partial curve] | 8.2 µM [falling, partial curve] | -41.7 |
| Cc1ccccc1CNC(=O)C(=O)NCC1CCCN1S(=O)(=O)c1cccs1 (stereo unspecified) | – | 16.4 µM [falling, single point] | -21.5 |

In the list so far, these have a halogen:

| Structure (SMILES) | AC50 [1] | AC50 [2] | cell number change [%] |
| --- | --- | --- | --- |
| CCOC(=O)[C@H]1[C@H]2COc3ccc(Cl)cc3[C@@H]2N2C(=O)CN(Cc3ccc(Cl)cc3)C(=O)[C@@]12C | – | – | 6.08 |
| Cc1ccc(S(=O)(=O)n2nc(OC(=O)c3ccccc3F)cc2N)cc1 | – | – | 14.4 |
| COc1cc(C(=O)NNC(=S)NC(=O)c2ccc(Cl)cc2)cc(OC)c1OC | – | – | -3.65 |
| O=C(CCN1C(=O)/C(=C/c2ccccc2F)SC1=S)N[C@@H](CO)Cc1ccccc1 | 23.1 µM [falling, single point] | – | -59.7 |
| O=C(Oc1cccnc1)c1cc(S(=O)(=O)N2CCOCC2)ccc1Cl | 13 µM [falling, partial curve, poor fit] | 4.11 µM [falling, partial curve] | -50.4 |
| CC1=C(C(=O)c2ccccc2)C(c2cn(-c3ccccc3)nc2-c2ccc(Cl)cc2)NC(=S)N1 (stereo unspecified) | 23.1 µM [falling, partial curve] | 2.06 µM [falling, partial curve, poor fit] | -74.9 |
| COc1ccc2nc(C)cc(NCc3cccc(C(F)(F)F)c3)c2c1 | 6.51 µM [falling, partial curve, poor fit] | – | -30.2 |
| O=C(COc1ccc(Cl)cc1)N1CCN(C(=O)c2ccccc2F)CC1 | – | – | -6.41 |
| O=C(/C=C/c1cccc(Cl)c1)NCCN1CCOCC1 | 0.461 µM [rising, full curve, poor fit] | 0.517 µM [rising, single point] | 13.9 |
| Cc1cccc(N=N/C(=C\O)C(=O)c2ccc(Br)cc2)c1 | 2.06 µM [rising, partial curve] | 1.64 µM [rising, partial curve] | -64.5 |
| O=C(Cc1ccc(Br)cc1)N1CCCCCC1 | 3.26 µM [falling, single point] | 23.1 µM [falling, single point] | -25.1 |
| COc1cc(CNCCO)ccc1OCC(=O)Nc1ccc(Br)cc1 | – | 29.1 µM [rising, single point] | – |
| CC(C)NCc1c(O)c(Br)cc2oc3c(c12)CCCC3 | 6.51 µM [falling, single point] | 5.8 µM [falling, single point] | -2.67 |
| CC(OC(=O)/C=C/c1cccc(Cl)c1)C(=O)NC1CCCCC1C (stereo unspecified) | 8.2 µM [falling, partial curve] | 8.2 µM [falling, partial curve] | -41.7 |
